Experimental data as given in paper PMC5427108.

Amino acid sequences for entries named in this document (tags omitted). A change or cut given only in a name is not applied to a line headed by its entry.
UniProt B7FA17: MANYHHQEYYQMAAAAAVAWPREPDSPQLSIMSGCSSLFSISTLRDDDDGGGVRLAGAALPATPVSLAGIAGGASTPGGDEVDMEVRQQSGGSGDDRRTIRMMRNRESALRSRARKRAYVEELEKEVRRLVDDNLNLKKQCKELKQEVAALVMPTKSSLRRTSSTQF
UniProt Q2R2W2: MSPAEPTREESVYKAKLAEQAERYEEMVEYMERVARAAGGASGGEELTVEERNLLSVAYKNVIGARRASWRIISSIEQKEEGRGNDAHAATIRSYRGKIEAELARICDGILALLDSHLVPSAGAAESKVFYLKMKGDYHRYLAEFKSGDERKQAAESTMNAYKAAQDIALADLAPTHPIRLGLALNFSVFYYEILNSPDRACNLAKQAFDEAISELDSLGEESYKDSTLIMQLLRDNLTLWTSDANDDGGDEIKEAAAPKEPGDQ
UniProt Q06967: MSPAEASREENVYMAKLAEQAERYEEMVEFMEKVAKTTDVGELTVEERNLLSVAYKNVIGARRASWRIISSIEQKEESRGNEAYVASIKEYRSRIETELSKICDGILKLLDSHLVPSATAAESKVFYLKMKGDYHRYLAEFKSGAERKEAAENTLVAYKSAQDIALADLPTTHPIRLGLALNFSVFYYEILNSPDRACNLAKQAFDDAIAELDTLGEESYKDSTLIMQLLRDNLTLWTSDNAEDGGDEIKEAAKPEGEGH
UniProt P40392: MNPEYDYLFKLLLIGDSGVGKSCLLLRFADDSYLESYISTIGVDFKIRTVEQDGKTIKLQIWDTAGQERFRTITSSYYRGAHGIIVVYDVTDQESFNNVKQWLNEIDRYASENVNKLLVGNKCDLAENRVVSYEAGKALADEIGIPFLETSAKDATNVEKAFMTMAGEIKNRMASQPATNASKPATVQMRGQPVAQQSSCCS

B1: Q5VMJ3 (Os06g0152100), actin monomer binding protein (protein, UniProt Q5VMJ3 1-131)
chain: MSWQAYVDDHLMCEIDGNHLTAAAIVGHDGSVWAQSPNFPQYKPEEITGIMKDFDEPGSLAPTGLFLGGTKYMVIQGEPGVVIRGKKGTGGICVKKTGLSLILGIYDEPMTPGQCNMIVERLGDYLIEQGC

Legend:
BirAG-OsFD1 (rice) = assay: proximity labelling; BioID in rice protoplasts transfected with pUbi::BirAG fusions; 24 h in WI with 50 uM biotin; biotinylated proteins captured on streptavidin Dynabeads, on-bead trypsin, nano LC-MS/MS; controls pUbi::WTBirA, pUbi::BirAG and pUbi::BirAG-FD1
BirAG-OsFD2 (rice) = BirAG-OsFD2 (rice) (UniProt B7FA17); assay: as above

binding (BirAG-OsFD1 (rice)) | binding (BirAG-OsFD2 (rice)) | Molecule
binds |  | 14-3-3 like protein Q2R2W2 (from UniProt Q2R2W2)
binds |  | 14-3-3 like protein Q10E23 (from UniProt Q06967)
 | binds | Q0JLX8 (Os01g0558600), Ras-related RIC1 (from UniProt P40392 1-202)
binds | binds | B1

These are yes or no findings as the source states them, for the method shown. Binding seen in cells or lysates may run through a third protein. A yes stands for co-enrichment or nearness to the bait. Other partners may have been found.
